The results in this text go back to the supplement of paper PMC9226226.

“And” between values parts separate entries of the source, which are not always exact repeats. Equal entries are not always repeated. ± gives the standard deviation of the averaged measurements. The list shows a part of the results. Several reference drugs read as weak here; read low effects with care.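 Human mesenchymal stem cells lacking the Werner syndrome gene, which age prematurely, were used. Automated live-cell imaging tracked growth across three biological repeats; the twenty drugs raising growth most relative to vehicle advanced, without a stated fixed cutoff.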

For the assay, the system named is Werner syndrome hMSCs (WRN-/-). In words: relative cell density (fold change vs vehicle control); higher = more proliferation (geroprotective). Conditions: concentration (umol/L): 1, 6 days.

Consider `CO/N=C(\C(=O)N[C@@H]1C(=O)N2C(C(=O)O)=C(COC(C)=O)CS[C@H]12)c1csc(N)n1`, for which the relative cell density (vehicle: DMSO) was determined as 1.32.

For the setting “vehicle: DMSO”, `C[C@]12CC[C@@H]3c4ccc(O)cc4C[C@@H](CCCCCCCCC[S+]([O-])CCCC(F)(F)C(F)(F)F)[C@H]3[C@@H]1CC[C@@H]2O` (stereo not given in full) yielded a relative cell density of 1.13.

Take `CNC(=O)[C@@H](NC(=O)[C@H](CC(C)C)[C@H](O)C(=O)NO)C(C)(C)C`: the relative cell density (vehicle: DMSO) came out at 0.928.

The molecule `Cc1cc(Nc2cc(N3CCN(C)CC3)nc(Sc3ccc(NC(=O)C4CC4)cc3)n2)n[nH]1` gave a relative cell density (vehicle: DMSO) of 0.717.

Where the note is “vehicle: DMSO”, `Clc1ccc2nsnc2c1NC1=NCCN1` registered a relative cell density of 0.912.

For the molecule `CC(=O)Nc1nnc(S(N)(=O)=O)s1`, the relative cell density (vehicle: DMSO) was found to be 1.23.

Molecule `CC(C)Oc1ccc2c(=O)c(-c3ccccc3)coc2c1` displayed a relative cell density (vehicle: DMSO) of 1.36.

With `C[N+](C)(C)CC(O)CC(=O)[O-]` (stereo not given), the relative cell density (vehicle: DMSO) is 1.23 and 1.41.

On to `N#C/C(=C1/SC[C@@H](c2ccc(Cl)cc2Cl)S1)n1ccnc1`, for which the relative cell density (vehicle: DMSO) turned out to be 1.12.

In the case of `O=C1O[C@H]([C@@H](O)CO)C([O-])=C1O.[Na+]`, under “vehicle: Water”, the relative cell density came to 0.887.

The molecule `CCCCOc1cc(C(=O)OCCN(CC)CC)ccc1N` gave a relative cell density (vehicle: DMSO) of 1.13.

On to `NC[C@H](O)c1ccc(O)c(O)c1`, for which the relative cell density (vehicle: DMSO) is 1.21.

Take `CCN(CC)CCNC(=O)c1ccc(N)cc1`: under “vehicle: DMSO”, the relative cell density came to 1.3.

As to `CCc1cc2c(cc1CC)CC(NC[C@H](O)c1ccc(O)c3[nH]c(=O)ccc13)C2`, for the setting “vehicle: DMSO”, the relative cell density worked out at 1.54.

For the molecule `Cc1c(-c2ccc(O)cc2)n(Cc2ccc(OCCN3CCCCCC3)cc2)c2ccc(O)cc12`, the relative cell density (vehicle: DMSO) was 1.29 and 1.1.

Molecule `C=C[C@]1(C)C[C@@H](OC(=O)CSC(C)(C)CNC(=O)[C@H](N)C(C)C)[C@]2(C)[C@H](C)CC[C@]3(CCC(=O)[C@H]32)[C@@H](C)[C@@H]1O` registered a relative cell density (vehicle: DMSO) of 1.08.

In turn, `O=C(O)C1=C(CSc2nnnn2CS(=O)(=O)O)CS[C@@H]2[C@H](NC(=O)[C@H](O)c3ccccc3)C(=O)N12` had a relative cell density (vehicle: DMSO) of 0.914.

`CC(C)[N+]1(C)[C@@H]2CC[C@H]1C[C@@H](OC(=O)C(CO)c1ccccc1)C2` (stereo not given in full) displayed a relative cell density (vehicle: DMSO) of 0.967.

In the case of `Cc1ccc(-c2cc(C(F)(F)F)nn2-c2ccc(S(N)(=O)=O)cc2)cc1`, the relative cell density (vehicle: DMSO) turned out to be 1.1.

Where the note is “vehicle: DMSO”, `O=C(O)c1cccc(-c2noc(-c3ccccc3F)n2)c1` came in with a relative cell density of 0.998.

Under “vehicle: DMSO”, `Nc1ccc(S(=O)(=O)Nc2nccs2)cc1` displayed a relative cell density of 1.09 ± 0.023.

`CN[C@H]1CC[C@@H](c2ccc(Cl)c(Cl)c2)c2ccccc21` registered a relative cell density (vehicle: DMSO) of 1.08.

As to `CC[C@H]1OC(=O)[C@H](C)[C@@H](O[C@H]2C[C@@](C)(OC)[C@@H](O)[C@H](C)O2)[C@H](C)[C@@H](O[C@@H]2O[C@H](C)C[C@H](N(C)C)[C@H]2O)[C@](C)(O)C[C@@H](C)CN(C)[C@H](C)[C@@H](O)[C@]1(C)O`, the relative cell density (vehicle: DMSO) was 1.05 and 1.02.

`CN1CCc2nc(C(=O)N[C@@H]3C[C@@H](C(=O)N(C)C)CC[C@@H]3NC(=O)C(=O)Nc3ccc(Cl)cn3)sc2C1` displayed a relative cell density (vehicle: DMSO) of 1.41.

`NC[C@H]1O[C@H](O[C@H]2[C@H](O)[C@@H](O[C@H]3O[C@H](CO)[C@@H](O)[C@H](N)[C@H]3O)[C@H](N)C[C@@H]2N)[C@H](N)C[C@@H]1O` showed a relative cell density (vehicle: Water) of 1.09 ± 0.066.

Take `O=C(/C=C/c1cccc(S(=O)(=O)Nc2ccccc2)c1)NO`: the relative cell density (vehicle: DMSO) amounted to 0.259.

Under “vehicle: DMSO”, `CCOC(=O)/C=C(C)/C=C/C=C(C)/C=C/c1c(C)cc(OC)c(C)c1C` had a relative cell density of 1.36.

Consider `CC(C)(C)c1cc(NC(=O)Nc2ccc(-c3cn4c(n3)sc3cc(OCCN5CCOCC5)ccc34)cc2)no1`, for which the relative cell density (vehicle: DMSO) came out at 0.65.

Regarding `COc1cc2nc(N3CCN(C(=O)C4COc5ccccc5O4)CC3)nc(N)c2cc1OC` (stereo not given), the relative cell density (vehicle: DMSO) came to 1.07.

For the setting “vehicle: DMSO”, `N[C@H]1CONC1=O` yielded a relative cell density of 1.04.

As for `CNC(=O)c1ccc(N2C(=S)N(c3ccc(C#N)c(C(F)(F)F)c3)C(=O)C2(C)C)cc1F`, the relative cell density (vehicle: DMSO) amounted to 0.889.

In turn, `CC#CCn1c(N2CCC[C@@H](N)C2)nc2c1c(=O)n(Cc1nc(C)c3ccccc3n1)c(=O)n2C` came in with a relative cell density (vehicle: DMSO) of 1.46.

For `CCN(CCCCOC(=O)c1ccc(OC)c(OC)c1)C(C)Cc1ccc(OC)cc1` (stereo not given), the relative cell density (vehicle: DMSO) is 1.13.

`CCN(CC)C(=O)C1(c2ccccc2)CC1CN` (stereo not given) registered a relative cell density (vehicle: DMSO) of 1.02.

In the case of `Cc1cc(C(C)(C)C)cc(C)c1CC1=NCCN1`, where the note is “vehicle: DMSO”, the relative cell density amounted to 0.948.

In turn, `CC#C[C@]1(O)CC[C@H]2[C@@H]3CCC4=CC(=O)CCC4=C3[C@@H](c3ccc(N(C)C)cc3)C[C@@]21C` yielded a relative cell density (vehicle: DMSO) of 0.994.

`CC[C@@H]1C(=O)N(C)c2cnc(Nc3ccc(C(=O)N[C@H]4CC[C@H](N5CCN(CC6CC6)CC5)CC4)cc3OC)nc2N1C(C)C` displayed a relative cell density (vehicle: DMSO) of 0.345.

On to `Nc1nc(=O)n([C@@H]2CS[C@H](CO)O2)cc1F`, for which the relative cell density (vehicle: DMSO) worked out at 1.09.

On to `COc1ccc(Cl)cc1C(=O)NCCc1ccc(S(=O)(=O)NC(=O)NC2CCCCC2)cc1`, for which, under “vehicle: DMSO”, the relative cell density worked out at 0.83.

Under “vehicle: DMSO”, `CCCCCCNC(=O)n1cc(F)c(=O)[nH]c1=O` returned a relative cell density of 0.616.

Molecule `CCC[C@@H]1C[C@@H](C(=O)N[C@@H]([C@H]2O[C@H](SC)[C@H](OP(=O)(O)O)[C@@H](O)[C@H]2O)[C@H](C)Cl)N(C)C1` registered a relative cell density (vehicle: Water) of 1.1.

In turn, `[Cl][Mn][Cl]` came in with a relative cell density (vehicle: Water) of 1.5.

Under “vehicle: DMSO”, `Cc1nc(C(=O)NCC(=O)O)c(O)c2ccc(Oc3ccccc3)cc12` displayed a relative cell density of 1.06.

With `CC(C)(Oc1ccc(Cl)cc1)C(=O)OCCOC(=O)c1cccnc1`, the relative cell density (vehicle: DMSO) was determined as 1.23.

As to `CC1(C)O[C@@H]2C[C@H]3[C@@H]4C[C@H](F)C5=CC(=O)C=C[C@]5(C)[C@@]4(F)[C@@H](O)C[C@]3(C)[C@]2(C(=O)CO)O1`, the relative cell density (vehicle: DMSO) worked out at 1.26.

Turning to `Cc1cc(C)nc(NS(=O)(=O)c2ccc(N)cc2)n1`, the relative cell density (vehicle: DMSO) is 1.09.

`CC(C)[C@H](N)C(=O)OCCOCn1cnc2c(=O)nc(N)[nH]c21`: the relative cell density (vehicle: DMSO) came out at 1.07.

With `CC[C@H](NC(=O)[C@H](C)NC)C(=O)N1C[C@@H](O)C[C@H]1Cc1c(-c2[nH]c3cc(F)ccc3c2C[C@@H]2C[C@H](O)CN2C(=O)[C@H](CC)NC(=O)[C@H](C)NC)[nH]c2cc(F)ccc12`, the relative cell density (vehicle: DMSO) was determined as 1.02.

Where the note is “vehicle: DMSO”, `CN1CCN2c3ncccc3Cc3ccccc3C2C1` (stereo not given) returned a relative cell density of 1.29.

In turn, `C[C@@H]1C/C=C/C=C/C=C/C=C/[C@H](O[C@@H]2O[C@H](C)[C@@H](O)[C@H](N)[C@@H]2O)C[C@@H]2O[C@](O)(C[C@@H](O)C[C@H]3O[C@@H]3/C=C/C(=O)O1)C[C@H](O)[C@H]2C(=O)O` displayed a relative cell density (vehicle: DMSO) of 1.01.

In the case of `CC(C(O)c1ccc(O)cc1)N1CCC(Cc2ccccc2)CC1` (stereo not given), under “vehicle: DMSO”, the relative cell density was determined as 1.02.

Regarding `CCn1c(=O)c2c(nc(/C=C/c3ccc(OC)c(OC)c3)n2C)n(CC)c1=O`, the relative cell density (vehicle: DMSO) was found to be 1.03.

In turn, `O=C(c1ccc(F)cc1)C1CCN(CCn2c(=O)[nH]c3ccccc3c2=O)CC1` showed a relative cell density (vehicle: Water) of 0.764.

`Clc1ccc2c(c1)CCc1cccnc1C2=C1CCNCC1` had a relative cell density (vehicle: DMSO) of 1.04.

As to `O=C1NCC2(CCN(CCc3ccccc3)CC2)O1`, the relative cell density (vehicle: DMSO) was 0.18.
